Test results taken from article PMC7551373.
Results are given in words; binding and its absence hold for the method and conditions named. In cells and extracts the contact can be indirect. Some binding calls cover weakened binding; strength is not graded here.

The chains behind the UniProt entries cited, without tags or fusion partners.
UniProt Q62318: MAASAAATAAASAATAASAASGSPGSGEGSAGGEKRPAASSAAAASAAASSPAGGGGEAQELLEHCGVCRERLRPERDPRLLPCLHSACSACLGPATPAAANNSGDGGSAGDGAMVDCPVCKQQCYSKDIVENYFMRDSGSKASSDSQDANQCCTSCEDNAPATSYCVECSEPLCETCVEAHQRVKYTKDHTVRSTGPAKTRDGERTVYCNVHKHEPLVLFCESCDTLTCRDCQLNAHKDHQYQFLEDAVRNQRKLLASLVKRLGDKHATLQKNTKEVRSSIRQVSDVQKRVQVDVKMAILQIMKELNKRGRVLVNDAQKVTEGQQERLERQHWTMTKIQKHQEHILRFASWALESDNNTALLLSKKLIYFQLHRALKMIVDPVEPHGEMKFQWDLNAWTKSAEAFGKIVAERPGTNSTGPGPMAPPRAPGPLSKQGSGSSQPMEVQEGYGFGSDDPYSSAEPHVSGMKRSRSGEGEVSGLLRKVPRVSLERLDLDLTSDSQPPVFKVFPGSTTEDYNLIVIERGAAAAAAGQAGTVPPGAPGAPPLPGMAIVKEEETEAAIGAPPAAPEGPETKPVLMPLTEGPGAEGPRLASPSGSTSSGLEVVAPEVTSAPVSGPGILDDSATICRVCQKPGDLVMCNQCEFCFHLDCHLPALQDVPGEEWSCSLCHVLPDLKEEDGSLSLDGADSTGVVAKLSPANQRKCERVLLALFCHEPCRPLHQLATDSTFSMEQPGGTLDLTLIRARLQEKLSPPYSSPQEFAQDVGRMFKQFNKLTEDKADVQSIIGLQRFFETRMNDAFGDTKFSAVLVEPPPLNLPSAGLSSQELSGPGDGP

Legend:
[1] = biological target: T1, Trim24 (mouse (endogenous in R1 ESC)) (UniProt Q64127); test: co-IP; whole-cell extract of ESC (hypotonic lysis, then 0.5 M NaCl), diluted in IP wash buffer (20 mM Tris-HCl pH 7.5, 0.2 mM EDTA, 0.5 mM DTT, 0.2% Triton X-100, 150 mM NaCl); 4 ug anti-Trim28 or anti-Trim24 overnight at 4 °C, Dynabeads, Western blot; α-IgG as negative control; also control against Trim33 shRNA knock-down ESC (anti-Trim24 IP, band intensity Trim28/Trim24 by ImageJ, n = 3)
T1 sequence: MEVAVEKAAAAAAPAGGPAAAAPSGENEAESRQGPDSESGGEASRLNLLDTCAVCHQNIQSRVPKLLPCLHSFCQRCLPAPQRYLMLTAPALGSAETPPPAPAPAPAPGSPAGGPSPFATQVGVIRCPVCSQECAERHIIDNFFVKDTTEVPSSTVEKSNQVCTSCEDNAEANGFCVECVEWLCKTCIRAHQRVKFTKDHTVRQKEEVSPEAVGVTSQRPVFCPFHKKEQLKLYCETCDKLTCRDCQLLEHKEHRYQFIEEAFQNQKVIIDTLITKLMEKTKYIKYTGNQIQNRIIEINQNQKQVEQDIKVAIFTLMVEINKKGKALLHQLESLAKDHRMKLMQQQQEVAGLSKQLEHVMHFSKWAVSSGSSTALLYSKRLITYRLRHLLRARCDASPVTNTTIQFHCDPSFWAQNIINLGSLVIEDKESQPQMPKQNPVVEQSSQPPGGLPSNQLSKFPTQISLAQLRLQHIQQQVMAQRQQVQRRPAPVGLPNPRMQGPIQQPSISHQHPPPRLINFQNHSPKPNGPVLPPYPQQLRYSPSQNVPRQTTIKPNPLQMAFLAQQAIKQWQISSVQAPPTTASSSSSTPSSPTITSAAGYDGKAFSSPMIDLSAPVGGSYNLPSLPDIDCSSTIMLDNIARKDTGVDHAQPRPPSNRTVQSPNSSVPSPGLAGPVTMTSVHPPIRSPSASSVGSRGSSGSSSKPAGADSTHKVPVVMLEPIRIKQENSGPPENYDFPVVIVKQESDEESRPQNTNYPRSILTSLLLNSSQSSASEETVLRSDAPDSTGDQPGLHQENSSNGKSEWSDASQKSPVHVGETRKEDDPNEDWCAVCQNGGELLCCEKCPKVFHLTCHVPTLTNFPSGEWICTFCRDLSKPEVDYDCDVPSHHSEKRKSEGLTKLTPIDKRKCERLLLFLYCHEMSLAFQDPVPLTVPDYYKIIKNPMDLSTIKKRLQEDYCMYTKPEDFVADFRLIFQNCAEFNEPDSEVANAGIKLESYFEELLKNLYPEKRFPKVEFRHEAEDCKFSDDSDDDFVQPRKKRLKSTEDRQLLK

[2] = biological target: Trim28 (mouse (endogenous in R1 ESC)) (UniProt Q62318); test: as above

B1: Trim33 (protein, UniProt Q99PP7 1-1142)
chain: MAENKGGGEAESGGGGSGSAPVTAGAAGPTAQEAEPPLAAVLVEEEEEEGGRAGAEGGAAGPDDGGVAAASSSSAPAASVPAASVGSAVPGGAASTPAPAAAPAPAPAPAPAPAPAPAPAPAPGSSSGPPLGPPASLLDTCAVCQQSLQSRREAEPKLLPCLHSFCLRCLPEPERQLSVPIPGGSNGDVQQVGVIRCPVCRQECRQIDLVDNYFVKDTSEAPSSSDEKSEQVCTSCEDNASAVGFCVECGEWLCKTCIEAHQRVKFTKDHLIRKKEDVSESVGTSGQRPVFCPVHKQEQLKLFCETCDRLTCRDCQLLEHKEHRYQFLEEAFQNQKGAIENLLAKLLEKKNYVHFAATQVQNRIKEVNETNKRVEQEIKVAIFTLINEINKKGKSLLQQLENVTKERQMKLLQQQNDITGLSRQVKHVMNFTNWAIASGSSTALLYSKRLITFQLRHILKARCDPVPAANGAIRFHCDPTFWAKNVVNLGNLVIESKPAPGYTPNVVVGQVPPGTNHISKTPGQINLAQLRLQHMQQQVYAQKHQQLQQMRLQQPPAPIPTTTATTQQHPRQAAPQMLQQQPPRLISVQTMQRGNMNCGAFQAHQMRLAQNAARIPGIPRHSAPQYSMMQPHLQRQHSNPGHAGPFPVVSAHNPINPTSPTTATMANANRGPTSPSVTAIELIPSVTNPENLPSLPDIPPIQLEDAGSSSLDNLLSRYISGSHLPPQPTSTMNPSPGPSALSPGSSGLSNSHTPVRPPSTSSTGSRGSCGSSGRTAEKSAHSFKSDQVKVKQEPGTEEEICSFSGAVKQEKTEDGRRSACMLSSPESSLTPPLSTNLHLESELDTLTGLENHVKTEPTDISESCKQSGLSNLVNGKSPIRNLMHRSARIGGDGNSKDDDPNEDWCAVCQNGGDLLCCEKCPKVFHLTCHVPTLLSFPSGDWICTFCRDIGKPEVEYDCDNMQHSKKGKTAQGLSPVDQRKCERLLLYLYCHELSIEFQEPVPVSIPNYYKIIKKPMDLSTVKKKLQKKHSQHYQIPDDFVADVRLIFKNCERFNEMMKVVQVYADTQEINLKGDSEVAKAGKAVALYFEDKLSEIYSDRTFTPLPEFEQDEDDGEVTEDSDEDFIQPRRKRLKSDERPVHIK
- binding [1]: binds
- binding [2]: binds
